Where two headings read alike, the source gives them in different places. Results are given in words; binding and its absence hold for the method and conditions named. In cells and extracts the contact can be indirect. Some results given as binding are weak or reduced against the parent protein; the word gives no strength. For part of these data: Tags and fused reporters may be left off the sequences shown. One block for each molecule: values may come before it.
Columns and labels:
Assay in all cases: FRET or BRET
Nluc-GIPR [1] = biological target: T1, Nluc-GIPR (UniProt P48546)
T1 sequence: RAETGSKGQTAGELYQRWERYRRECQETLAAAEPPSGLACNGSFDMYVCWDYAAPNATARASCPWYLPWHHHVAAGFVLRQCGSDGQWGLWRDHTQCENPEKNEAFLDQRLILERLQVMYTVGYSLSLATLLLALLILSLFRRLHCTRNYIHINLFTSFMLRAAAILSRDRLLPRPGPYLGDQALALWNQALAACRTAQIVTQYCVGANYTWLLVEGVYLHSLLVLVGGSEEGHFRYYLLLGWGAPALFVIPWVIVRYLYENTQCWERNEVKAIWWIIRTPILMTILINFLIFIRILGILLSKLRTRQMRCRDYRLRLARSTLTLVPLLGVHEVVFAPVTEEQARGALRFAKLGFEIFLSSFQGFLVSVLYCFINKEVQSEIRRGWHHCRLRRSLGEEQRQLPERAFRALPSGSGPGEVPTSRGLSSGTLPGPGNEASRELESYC

Sequences of proteins named here, by UniProt entry; tags and fusion partners are left off. Residues count along the entry.
UniProt Q03431, residues 27-593: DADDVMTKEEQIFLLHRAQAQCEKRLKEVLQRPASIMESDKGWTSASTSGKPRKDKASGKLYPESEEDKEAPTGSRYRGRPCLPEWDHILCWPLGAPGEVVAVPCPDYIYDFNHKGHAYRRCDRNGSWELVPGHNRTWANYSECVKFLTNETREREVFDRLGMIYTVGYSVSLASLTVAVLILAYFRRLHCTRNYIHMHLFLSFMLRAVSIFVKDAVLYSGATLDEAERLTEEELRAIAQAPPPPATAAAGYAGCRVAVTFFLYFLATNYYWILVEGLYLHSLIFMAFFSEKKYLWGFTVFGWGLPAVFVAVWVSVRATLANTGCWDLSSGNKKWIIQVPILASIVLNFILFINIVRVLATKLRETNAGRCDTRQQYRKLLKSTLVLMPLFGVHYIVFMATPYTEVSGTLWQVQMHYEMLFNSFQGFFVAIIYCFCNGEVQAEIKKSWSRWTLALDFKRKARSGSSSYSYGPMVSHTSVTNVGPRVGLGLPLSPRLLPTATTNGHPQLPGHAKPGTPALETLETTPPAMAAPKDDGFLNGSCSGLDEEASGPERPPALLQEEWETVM
UniProt P41586, residues 21-468: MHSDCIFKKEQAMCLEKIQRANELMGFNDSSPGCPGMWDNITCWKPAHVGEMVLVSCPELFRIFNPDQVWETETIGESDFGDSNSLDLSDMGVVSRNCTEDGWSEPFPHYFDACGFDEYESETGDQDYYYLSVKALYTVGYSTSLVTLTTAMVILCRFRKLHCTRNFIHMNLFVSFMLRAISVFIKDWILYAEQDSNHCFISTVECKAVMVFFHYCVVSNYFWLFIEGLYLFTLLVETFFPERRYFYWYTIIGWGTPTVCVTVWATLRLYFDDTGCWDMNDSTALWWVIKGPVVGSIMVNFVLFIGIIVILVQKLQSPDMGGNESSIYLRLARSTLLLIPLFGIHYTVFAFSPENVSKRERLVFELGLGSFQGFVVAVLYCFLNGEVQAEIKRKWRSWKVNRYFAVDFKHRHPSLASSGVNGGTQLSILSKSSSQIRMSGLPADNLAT
UniProt P34998, residues 24-415: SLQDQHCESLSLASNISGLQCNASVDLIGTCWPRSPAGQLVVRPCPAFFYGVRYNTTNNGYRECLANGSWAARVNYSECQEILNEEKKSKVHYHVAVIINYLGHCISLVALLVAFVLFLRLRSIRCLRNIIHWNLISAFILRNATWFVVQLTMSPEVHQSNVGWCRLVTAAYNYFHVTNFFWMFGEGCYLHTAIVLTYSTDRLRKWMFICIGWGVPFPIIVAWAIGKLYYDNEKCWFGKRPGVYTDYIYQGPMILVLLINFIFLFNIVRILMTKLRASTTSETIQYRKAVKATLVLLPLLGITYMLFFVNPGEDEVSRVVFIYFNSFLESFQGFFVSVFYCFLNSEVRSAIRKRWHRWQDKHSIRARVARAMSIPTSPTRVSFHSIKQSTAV
UniProt Q16602, residues 23-461: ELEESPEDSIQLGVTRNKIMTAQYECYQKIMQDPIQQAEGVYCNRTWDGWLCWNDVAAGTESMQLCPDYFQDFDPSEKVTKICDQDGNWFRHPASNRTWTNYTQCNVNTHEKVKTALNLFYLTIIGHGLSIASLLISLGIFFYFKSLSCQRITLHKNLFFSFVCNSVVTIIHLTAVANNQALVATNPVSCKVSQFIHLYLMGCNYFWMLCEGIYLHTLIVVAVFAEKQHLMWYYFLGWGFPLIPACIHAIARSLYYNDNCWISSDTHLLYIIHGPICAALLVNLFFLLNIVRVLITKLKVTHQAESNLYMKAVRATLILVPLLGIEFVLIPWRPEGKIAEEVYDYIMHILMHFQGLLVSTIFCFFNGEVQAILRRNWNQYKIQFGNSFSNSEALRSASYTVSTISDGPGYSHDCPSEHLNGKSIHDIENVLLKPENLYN
UniProt O60894, residues 27-148: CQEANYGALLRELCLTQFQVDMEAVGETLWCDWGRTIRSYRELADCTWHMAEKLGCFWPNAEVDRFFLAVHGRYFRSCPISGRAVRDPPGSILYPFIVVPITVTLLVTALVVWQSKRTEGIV
UniProt O60895, residues 43-175: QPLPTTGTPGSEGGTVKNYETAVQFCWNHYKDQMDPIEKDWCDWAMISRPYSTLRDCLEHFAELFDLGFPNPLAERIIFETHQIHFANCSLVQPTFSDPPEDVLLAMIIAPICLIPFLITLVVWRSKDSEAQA

Nluc-GIPR [2] = biological target: T1, Nluc-GIPR; remark: listed apart in the source
myc-GIPR-Rluc [3] = biological target: T2, myc-GIPR-Rluc (UniProt P48546)
T2 sequence: T1 sequence

PTH1R-Rluc = PTH1R-Rluc (UniProt Q03431)
PAC1R-Rluc = PAC1R-Rluc (UniProt P41586)
CRFR2-Rluc = biological target: T3, CRFR2-Rluc (UniProt Q13324)
T3 sequence: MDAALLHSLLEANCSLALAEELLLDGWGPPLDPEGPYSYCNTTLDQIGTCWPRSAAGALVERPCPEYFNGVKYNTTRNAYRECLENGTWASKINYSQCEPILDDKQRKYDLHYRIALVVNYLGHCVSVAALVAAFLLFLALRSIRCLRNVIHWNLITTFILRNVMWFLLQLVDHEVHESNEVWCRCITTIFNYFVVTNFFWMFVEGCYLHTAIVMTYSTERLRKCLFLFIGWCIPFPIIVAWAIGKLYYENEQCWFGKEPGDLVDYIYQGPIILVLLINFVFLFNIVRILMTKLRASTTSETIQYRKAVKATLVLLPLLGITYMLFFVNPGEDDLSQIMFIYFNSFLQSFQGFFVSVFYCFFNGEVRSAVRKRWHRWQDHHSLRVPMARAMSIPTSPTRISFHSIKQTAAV

CRFR1-Rluc = CRFR1-Rluc (UniProt P34998)
myc-GIPR-Rluc, P48546 [4] = biological target: T4, myc-GIPR-Rluc, P48546; conditions: remark: other sources report otherwise
T4 chain: T1 sequence

myc-GIPR-Rluc, P48546 [5] = biological target: T4, myc-GIPR-Rluc, P48546; conditions: remark: other sources report otherwise
Nluc-GIPR [6] = biological target: T1, Nluc-GIPR; remark: listed apart in the source
Nluc-CLR [7] = biological target: Nluc-CLR (UniProt Q16602)
Nluc-CLR [8] = biological target: Nluc-CLR (UniProt Q16602); remark: listed apart in the source
myc-GIPR-Rluc [9] = biological target: T2, myc-GIPR-Rluc; remark: listed apart in the source

Molecule: SNAP-RAMP1 (from UniProt O60894 27-148)
binding (Nluc-GIPR [1]): binds
binding (Nluc-GIPR [2]): binds

Molecule: RAMP2-YFP (from UniProt O60895 43-175)
binding (myc-GIPR-Rluc [3]): binds

B1: β-arrestin-1-YFP, P49407 1-418 (protein)
chain: MGDKGTRVFKKASPNGKLTVYLGKRDFVDHIDLVDPVDGVVLVDPEYLKERRVYVTLTCAFRYGREDLDVLGLTFRKDLFVANVQSFPPAPEDKKPLTRLQERLIKKLGEHAYPFTFEIPPNLPCSVTLQPGPEDTGKACGVDYEVKAFCAENLEEKIHKRNSVRLVIRKVQYAPERPGPQPTAETTRQFLMSDKPLHLEASLDKEIYYHGEPISVNVHVTNNTNKTVKKIKISVRQYADICLFNTAQYKCPVAMEEADDTVAPSSTFCKVYTLTPFLANNREKRGLALDGKLKHEDTNLASSTLLREGANREILGIIVSYKVKVKLVVSRGGLLGDLASSDVAVELPFTLMHPKPKEEPPHREVPENETPVDTNLIELDTNDDDIVFEDFARQRLKGMKDDKEEEEDGTGSPQLNNR
binding (myc-GIPR-Rluc, P48546 [4]): binds
binding (myc-GIPR-Rluc, P48546 [5]): binds

B4: RAMP3-YFP (protein, UniProt O60896 24-148)
chain: RAGGCNETGMLERLPLCGKAFADMMGKVDVWKWCNLSEFIVYYESFTNCTEMEANVVGCYWPNPLAQGFITGIHRQFFSNCTVDRVHLEDPPDEVLIPLIVIPVVLTVAMAGLVVWRSKRTDTLL
binding (myc-GIPR-Rluc [9]): binds

Results, then the molecule that gave them:

binding (Nluc-GIPR [1]): binds
binding (Nluc-GIPR [2]): binds
Molecule: SNAP-RAMP2 (from UniProt O60895 43-175)

binding (myc-GIPR-Rluc [3]): binds
binding (PTH1R-Rluc): no binding
binding (PAC1R-Rluc): no binding
binding (CRFR2-Rluc): binds weakly
binding (CRFR1-Rluc): no binding
Molecule: RAMP1-YFP (from UniProt O60894 27-148)

binding (Nluc-GIPR [6]): binds
B2: SNAP-RAMP3ΔPDZ (protein, UniProt O60896)
chain: RAGGCNETGMLERLPLCGKAFADMMGKVDVWKWCNLSEFIVYYESFTNCTEMEANVVGCYWPNPLAQGFITGIHRQFFSNCTVDRVHLEDPPDEVLIPLIVIPVVLTVAMAGLVVWRSKRT
modifications: SNAP-Surface Alexa Fluor 488 on the SNAP tag

binding (Nluc-GIPR [1]): binds
binding (Nluc-CLR [7]): binds
binding (Nluc-GIPR [6]): binds
binding (Nluc-CLR [8]): binds
B3: SNAP-RAMP3 (protein, UniProt O60896 24-148)
chain: B4 chain
modifications: SNAP-Surface Alexa Fluor 488 on the SNAP tag

From publication doi:10.1101/2021.04.08.436756
